Data taken from PubChem BioAssay (NCATS).
The list shows a part of the results. These are further read-outs of the screen, such as a control signal, another cell line or another target. No call is given for them. Compounds called inactive in the main read-out are mostly missing here. Potencies come from curve fits of mixed quality, noted in brackets.

Test: S16 Schwann cell PMP22 intronic element beta-lactamase assay (AID 624044)
Details: S16 rat Schwann cells, PMP22 element beta-lactamase FRET, 24 h; measured here: 530 nm viability channel
In short: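 Rat S16 Schwann cells with beta-Lac driven by a PMP22 intronic element, compound-treated 24 h at 37 °C. LiveBLAzer FRET B/G read: 460 nm normalized to potassium clavulanate vs DMSO; 535 nm FRET as viability; concentration-effect curves classified.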

Row | SMILES | AC50
1 | NCC[C@H](O)C(=O)N[C@@H]1C[C@H](N)[C@@H](O[C@H]2O[C@H](CN)CC[C@H]2N)[C@H](O)[C@H]1O[C@H]1O[C@H](CO)[C@@H](O)[C@H](N)[C@H]1O | 12.6 µM [rising, single point]
2 | CC(C)NC[C@H]1CCc2cc(CO)c([N+](=O)[O-])cc2N1 | 11.2 µM [falling, single point]
3 | Cc1[nH]cnc1CN1CCc2c(c3ccccc3n2C)C1=O | 2.24 µM [falling, full curve]
4 | COc1nc(N)nc2c1ncn2[C@@H]1O[C@H](CO)[C@@H](O)[C@@H]1O | 12.6 µM [falling, single point]
5 | Cc1ccccc1N1C(=O)c2cc(N)ccc2N/C1=C\F | 1.12 µM [falling, full curve, poor fit]
6 | O=C(Nc1cccc(C(F)(F)F)c1)c1cc(Br)cc(Br)c1O | 11.2 µM [falling, partial curve]
7 | COc1ccc(CN(CCN(C)C)c2ncccn2)cc1 | 0.00891 µM [falling, full curve, poor fit]
8 | CC1=CC(=C(c2ccc(N)cc2)c2ccc(N)cc2)C=CC1=N | 3.55 µM [falling, full curve]
9 | CCCCC[C@H](O)/C=C/[C@@H]1[C@H]2C/C(=C/CCCC(=O)O)O[C@H]2C[C@H]1O | 3.55 µM [falling, full curve, poor fit]
10 | O=C1OC(OC(=O)c2cccnc2Nc2cccc(C(F)(F)F)c2)c2ccccc21 (stereo unspecified) | 31.6 µM [falling, partial curve]
11 | CC1CCC(C(C)C)C(=O)C1 (stereo unspecified) | 25.1 µM [falling, single point]
